## Library screen at single concentrations

Source: ChEMBL document CHEMBL3988442, “University of Dundee, Small-Polar-MMV Screening Library” (2021).

Mtb glucose medium: 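Phenotypic screen: M. tuberculosis growth, glucose 7H9 medium, 3 days; the read-out is not stated. Compounds at 50 µM. Higher reads as more growth inhibition (inferred: compounds with an IC50 in retests scored well above the rest). Of about 69,000 compounds tested this way, about 760 (1.1%) reached 50% or more in at least one test.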
Mtb cholesterol medium: 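Growth of Mycobacterium tuberculosis over 4 days (cholesterol / DPPC medium with tyloxapol); the read-out is not stated. Concentration: 50 µM. Direction is inferred from retests: higher values go with more growth inhibition. Of about 69,000 compounds tested this way, about 370 (0.54%) reached 50% or more in at least one test.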

Each number is a percent effect as filed.
The record does not define 0% and 100%; most values in the screen are far below 50% and negative numbers occur (in some assays of this library far below -100).
The compounds are a random part of those screened.
Two or more numbers in one place are separate tests of the same structure; such repeats can differ widely.

For Cc1cc(CN(C)C(=O)C2CC(=O)N(Cc3cccnc3)C2)on1 (stereo not shown) the result was Mtb glucose medium: -13.27%; Mtb cholesterol medium: -21.26%.
For Cc1nc(N2CCOCC2)nc2c1CCN(C(=O)C1(C#N)CC1)CC2 the result was Mtb glucose medium: -1.046%; Mtb cholesterol medium: -4.047%.
For Cc1nn(C)c2nc(N(Cc3nccs3)C3CC3)sc12 the result was Mtb glucose medium: 16.53% and 0.8929%; Mtb cholesterol medium: 5.586%.
For Cc1ccc(CN(CCN(C)C)Cc2ccnn2C2CCCCO2)o1.O=C(O)CC(O)(CC(=O)O)C(=O)O (stereo not shown) the result was Mtb glucose medium: 6.276%; Mtb cholesterol medium: -2.329%.
For CC(=O)N1CCC2(CC1)CC(C(C)C)=NO2 the result was Mtb glucose medium: 6.419%; Mtb cholesterol medium: -12.81%.
For COCCN(CCOC)C(=O)c1ccoc1C the result was Mtb glucose medium: 7.949% and 6.723%; Mtb cholesterol medium: -0.1347%.
For CN(C(=O)CCN1CCCC1=O)c1cc(C#N)c2ccccc2n1 the result was Mtb glucose medium: -8.26% and -20.85%; Mtb cholesterol medium: -10.99%.
For Cc1cccc(N(CC(=O)N2CCCCC2)Cc2ccno2)c1 the result was Mtb glucose medium: -10.93%; Mtb cholesterol medium: 2.653%.
For Cc1noc(CN2CCC(Cc3ccc(F)cc3)CC2)n1 the result was Mtb glucose medium: 31.78%; Mtb cholesterol medium: 10.49%.
For O=C(CN1CCOCC1)N1CCC2(CCCN(C3CCOCC3)C2=O)C1 (stereo not shown) the result was Mtb glucose medium: 5.926%; Mtb cholesterol medium: 17.51%.
For O=C(CCc1ccccn1)N1CCCC(N2CCNC2=O)C1 (stereo not shown) the result was Mtb glucose medium: -19.85%; Mtb cholesterol medium: -2.049%.
For COc1ccc(CNC(=O)NCCCNS(C)(=O)=O)cc1OC the result was Mtb glucose medium: -25.32%; Mtb cholesterol medium: -7.106%.
For Cc1cnn(CC2CCCN2C(=O)c2ccc3[nH]nnc3c2)c1 (stereo not shown) the result was Mtb glucose medium: -34.47%; Mtb cholesterol medium: 0.1398%.
For O=C(O)C(F)(F)F.[H][C@@]12CCCO[C@]1([H])[C@H](NC(=O)C1CC1)CN(Cc1ccccc1)C2 the result was Mtb glucose medium: -28.61%; Mtb cholesterol medium: -23.07%.
For Cc1ccc(C)n1-c1c(C(=O)NCC(C)N(C)C)cnn1C (stereo not shown) the result was Mtb glucose medium: 14.45%; Mtb cholesterol medium: 3.141%.
For COc1ccc2c(c1)NC(=O)C2OC(=O)CCc1ccc(F)cc1 (stereo not shown) the result was Mtb glucose medium: 20.94%; Mtb cholesterol medium: 15.56%.
For CN(C)CC(=O)N1CC(c2nn(C)c3nccnc23)C1 the result was Mtb glucose medium: 22.92%; Mtb cholesterol medium: -1.561%.
For CCCN1CCCn2nc(CNS(=O)(=O)c3cccc(F)c3)cc2C1 the result was Mtb glucose medium: -0.1264%; Mtb cholesterol medium: 8.889%.
For N#CCCN(CC1CCCO1)C(=O)c1ccc(C#N)cc1 (stereo not shown) the result was Mtb glucose medium: -10.74%; Mtb cholesterol medium: -3.381%.
For Cc1ccc(CN(C(=O)C(C)NC(N)=O)C2CC2)cc1C (stereo not shown) the result was Mtb glucose medium: -2.026%; Mtb cholesterol medium: -33.78%.
For Cc1ccc2c(c1)C1(CCNCC1)CN2C(=O)CN(C)C.O=C(O)C(F)(F)F.O=C(O)C(F)(F)F the result was Mtb glucose medium: -5.736%; Mtb cholesterol medium: -6.042%.
For Cn1c2c(ccc1=O)CC(Nc1ncc(F)cn1)CC2.O=C(O)C(F)(F)F (stereo not shown) the result was Mtb glucose medium: 26.5%; Mtb cholesterol medium: 14.38%.
For CCOc1ncccc1NC(=O)N1CCN(CC(=O)NC)CC1 the result was Mtb glucose medium: -74.08%; Mtb cholesterol medium: -23.58%.
For Fc1ccc(Cn2ncc3c2CN(c2noc(C4CC4)n2)C3)cc1 the result was Mtb glucose medium: 18.9%; Mtb cholesterol medium: 59.35% and 22.95%.
For Cc1ccc(CSCCn2nc3ccccn3c2=O)cc1 the result was Mtb glucose medium: 21.47%; Mtb cholesterol medium: 25.74%.
For O=C(O)C(F)(F)F.[H][C@@]12CCCO[C@]1([H])[C@@H](Oc1ccccn1)CN2C(=O)c1ccnnc1 the result was Mtb glucose medium: -13.92%; Mtb cholesterol medium: -7.697% and 2.645%.
For NC(=O)NCC1CCCCN1C(=O)c1ccc(Br)s1 (stereo not shown) the result was Mtb glucose medium: 2.771%; Mtb cholesterol medium: -2.733%.
For CC(C)Oc1cccc(C(=O)C2CCCN(C(=O)c3cncs3)C2)c1 (stereo not shown) the result was Mtb glucose medium: 0.2175%; Mtb cholesterol medium: -3.994%.
For Cc1cccc(CN2CCN(C(=O)c3cccnc3O)CC2)c1 the result was Mtb glucose medium: 16.31%; Mtb cholesterol medium: -2.142%.